Consider one molecule from patent publication US20230265187A1.

This assay deals with His-tagged cynomolgus monkey TIGIT (Acro Biosystems #TIT-05223) (cynomolgus monkey). Kind of assay: summary of the data of Tables 3-5.

Results are given in words; binding and its absence hold for the method and conditions named. Some results given as binding are weak or reduced against the parent protein; the word gives no strength.

B1: 43586p1.2.F6 (scFv, V domains shown)
VH: EVQLLESGEGLVQPGGSLRLSCAASGFTFTSYLMSWVRQAPGKGLEWVSTITWDGDRTYYADSVKGRFTISRDNSKNTLYLQMNSLRVGDTAVYYCAKHWTVFQYGMDVWGQGTTVTVSS
VL: QSVLTQPASASGTPGQRVTISCSGTISNIETKYVSWYQQLPGTAPKLLIYGNHQRPSGVPDRFSGSKSGTSASLAISGLQSEDEADYYCASWENDLKSWVFGGGTKLTVL
In the case of B1, the binding entry is “binds”.
